Assay results published in paper PMC2806832.
No constants are given. Whether binding was seen depends on the method and setting. In cells and extracts the contact can be indirect. Some binding calls cover weakened binding; strength is not graded here. Values belong to the molecule of their own block, whether it stands above or below them.

Chains of the proteins cited; added tags and fusions are not shown. Residues count along the entry.
UniProt P23818, residues 19-907: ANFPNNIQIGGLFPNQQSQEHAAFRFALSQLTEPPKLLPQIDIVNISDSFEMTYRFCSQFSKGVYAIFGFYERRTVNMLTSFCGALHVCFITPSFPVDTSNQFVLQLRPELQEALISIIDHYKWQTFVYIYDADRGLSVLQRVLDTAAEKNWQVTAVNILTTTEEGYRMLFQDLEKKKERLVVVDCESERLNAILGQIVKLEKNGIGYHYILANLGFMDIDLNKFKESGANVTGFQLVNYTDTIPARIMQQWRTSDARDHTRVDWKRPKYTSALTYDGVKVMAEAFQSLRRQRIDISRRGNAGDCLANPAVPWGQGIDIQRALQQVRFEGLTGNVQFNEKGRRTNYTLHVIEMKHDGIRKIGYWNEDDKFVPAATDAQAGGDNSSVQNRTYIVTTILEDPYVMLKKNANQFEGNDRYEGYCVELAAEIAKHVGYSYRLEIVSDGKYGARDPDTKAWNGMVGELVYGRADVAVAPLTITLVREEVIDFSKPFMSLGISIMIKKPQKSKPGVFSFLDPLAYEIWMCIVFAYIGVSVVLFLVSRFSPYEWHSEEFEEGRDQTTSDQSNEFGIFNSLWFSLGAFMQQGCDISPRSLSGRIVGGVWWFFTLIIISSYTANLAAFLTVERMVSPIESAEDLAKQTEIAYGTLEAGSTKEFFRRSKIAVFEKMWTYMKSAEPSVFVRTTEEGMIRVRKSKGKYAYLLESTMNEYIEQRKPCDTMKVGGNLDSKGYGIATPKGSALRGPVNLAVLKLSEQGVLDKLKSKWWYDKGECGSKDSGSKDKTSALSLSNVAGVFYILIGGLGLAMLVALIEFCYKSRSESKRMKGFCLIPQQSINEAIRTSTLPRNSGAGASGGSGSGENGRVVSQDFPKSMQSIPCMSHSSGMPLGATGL
UniProt Q62696: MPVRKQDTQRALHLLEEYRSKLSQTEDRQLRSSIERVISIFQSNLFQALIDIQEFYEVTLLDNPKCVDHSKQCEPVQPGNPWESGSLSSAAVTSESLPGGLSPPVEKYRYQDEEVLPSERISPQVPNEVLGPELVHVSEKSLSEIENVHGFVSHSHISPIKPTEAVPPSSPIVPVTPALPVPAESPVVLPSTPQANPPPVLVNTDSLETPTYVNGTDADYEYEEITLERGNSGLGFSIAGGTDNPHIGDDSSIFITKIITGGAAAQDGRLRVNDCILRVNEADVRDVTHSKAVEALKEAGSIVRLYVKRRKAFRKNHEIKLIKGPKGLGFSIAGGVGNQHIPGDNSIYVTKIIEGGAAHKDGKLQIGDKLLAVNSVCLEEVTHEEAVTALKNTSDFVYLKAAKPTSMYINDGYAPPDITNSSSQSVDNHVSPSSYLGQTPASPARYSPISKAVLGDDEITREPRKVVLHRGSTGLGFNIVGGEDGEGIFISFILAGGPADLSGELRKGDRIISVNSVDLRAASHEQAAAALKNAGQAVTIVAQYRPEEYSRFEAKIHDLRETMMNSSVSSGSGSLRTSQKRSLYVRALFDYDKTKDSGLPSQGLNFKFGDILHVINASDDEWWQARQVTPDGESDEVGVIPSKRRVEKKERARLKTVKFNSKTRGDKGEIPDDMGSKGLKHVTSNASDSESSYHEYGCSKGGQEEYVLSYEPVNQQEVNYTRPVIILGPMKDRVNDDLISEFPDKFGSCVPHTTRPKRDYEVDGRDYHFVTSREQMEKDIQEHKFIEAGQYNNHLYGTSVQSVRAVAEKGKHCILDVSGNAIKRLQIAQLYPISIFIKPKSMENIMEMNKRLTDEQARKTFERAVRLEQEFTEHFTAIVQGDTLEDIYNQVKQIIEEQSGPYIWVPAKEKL
UniProt Q811D0: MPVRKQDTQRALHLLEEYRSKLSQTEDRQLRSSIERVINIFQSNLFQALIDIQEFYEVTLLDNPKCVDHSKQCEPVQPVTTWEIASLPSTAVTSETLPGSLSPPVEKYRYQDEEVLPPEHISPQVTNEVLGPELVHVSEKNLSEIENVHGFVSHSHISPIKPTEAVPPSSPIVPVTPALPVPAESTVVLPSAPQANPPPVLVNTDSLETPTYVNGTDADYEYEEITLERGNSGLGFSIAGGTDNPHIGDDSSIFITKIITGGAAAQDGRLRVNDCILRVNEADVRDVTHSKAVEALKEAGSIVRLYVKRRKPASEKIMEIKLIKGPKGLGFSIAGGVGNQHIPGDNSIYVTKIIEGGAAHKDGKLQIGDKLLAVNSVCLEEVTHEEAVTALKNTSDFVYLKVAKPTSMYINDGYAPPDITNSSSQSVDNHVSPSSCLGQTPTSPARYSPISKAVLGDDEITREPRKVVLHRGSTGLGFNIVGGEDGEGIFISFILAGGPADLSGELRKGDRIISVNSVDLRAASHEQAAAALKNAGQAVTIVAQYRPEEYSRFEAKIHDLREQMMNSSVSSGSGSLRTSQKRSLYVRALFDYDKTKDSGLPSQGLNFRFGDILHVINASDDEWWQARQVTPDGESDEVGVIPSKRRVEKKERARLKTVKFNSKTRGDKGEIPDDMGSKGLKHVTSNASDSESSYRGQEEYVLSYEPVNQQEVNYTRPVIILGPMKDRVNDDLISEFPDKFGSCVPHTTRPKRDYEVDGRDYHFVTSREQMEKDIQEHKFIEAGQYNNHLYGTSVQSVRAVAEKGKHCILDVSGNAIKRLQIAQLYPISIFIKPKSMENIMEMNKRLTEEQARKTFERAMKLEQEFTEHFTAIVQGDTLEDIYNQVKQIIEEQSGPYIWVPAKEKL
UniProt P19493, residues 21-902: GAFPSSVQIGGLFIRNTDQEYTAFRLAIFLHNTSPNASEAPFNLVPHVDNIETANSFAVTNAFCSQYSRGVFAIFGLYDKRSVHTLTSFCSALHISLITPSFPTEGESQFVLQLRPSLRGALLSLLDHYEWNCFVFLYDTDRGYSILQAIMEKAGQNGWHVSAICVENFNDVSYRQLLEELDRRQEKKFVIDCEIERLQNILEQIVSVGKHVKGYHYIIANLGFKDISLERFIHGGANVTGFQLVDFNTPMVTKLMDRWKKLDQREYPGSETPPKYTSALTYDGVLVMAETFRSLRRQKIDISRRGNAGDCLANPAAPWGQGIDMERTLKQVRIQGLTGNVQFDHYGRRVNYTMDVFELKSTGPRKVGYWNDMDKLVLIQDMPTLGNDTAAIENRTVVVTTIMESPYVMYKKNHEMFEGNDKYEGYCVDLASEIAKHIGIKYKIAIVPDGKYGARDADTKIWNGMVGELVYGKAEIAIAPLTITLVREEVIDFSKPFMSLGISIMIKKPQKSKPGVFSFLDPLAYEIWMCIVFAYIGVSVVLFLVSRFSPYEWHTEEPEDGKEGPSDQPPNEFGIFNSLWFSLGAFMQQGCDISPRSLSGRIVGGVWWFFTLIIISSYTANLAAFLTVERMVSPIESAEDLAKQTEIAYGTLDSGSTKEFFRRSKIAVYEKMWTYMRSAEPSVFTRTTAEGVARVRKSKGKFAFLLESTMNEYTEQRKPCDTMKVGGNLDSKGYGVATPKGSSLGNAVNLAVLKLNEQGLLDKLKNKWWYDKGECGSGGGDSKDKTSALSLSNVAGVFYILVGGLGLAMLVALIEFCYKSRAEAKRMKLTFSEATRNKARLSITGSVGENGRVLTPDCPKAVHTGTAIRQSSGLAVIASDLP
UniProt Q9Z2W8, residues 21-902: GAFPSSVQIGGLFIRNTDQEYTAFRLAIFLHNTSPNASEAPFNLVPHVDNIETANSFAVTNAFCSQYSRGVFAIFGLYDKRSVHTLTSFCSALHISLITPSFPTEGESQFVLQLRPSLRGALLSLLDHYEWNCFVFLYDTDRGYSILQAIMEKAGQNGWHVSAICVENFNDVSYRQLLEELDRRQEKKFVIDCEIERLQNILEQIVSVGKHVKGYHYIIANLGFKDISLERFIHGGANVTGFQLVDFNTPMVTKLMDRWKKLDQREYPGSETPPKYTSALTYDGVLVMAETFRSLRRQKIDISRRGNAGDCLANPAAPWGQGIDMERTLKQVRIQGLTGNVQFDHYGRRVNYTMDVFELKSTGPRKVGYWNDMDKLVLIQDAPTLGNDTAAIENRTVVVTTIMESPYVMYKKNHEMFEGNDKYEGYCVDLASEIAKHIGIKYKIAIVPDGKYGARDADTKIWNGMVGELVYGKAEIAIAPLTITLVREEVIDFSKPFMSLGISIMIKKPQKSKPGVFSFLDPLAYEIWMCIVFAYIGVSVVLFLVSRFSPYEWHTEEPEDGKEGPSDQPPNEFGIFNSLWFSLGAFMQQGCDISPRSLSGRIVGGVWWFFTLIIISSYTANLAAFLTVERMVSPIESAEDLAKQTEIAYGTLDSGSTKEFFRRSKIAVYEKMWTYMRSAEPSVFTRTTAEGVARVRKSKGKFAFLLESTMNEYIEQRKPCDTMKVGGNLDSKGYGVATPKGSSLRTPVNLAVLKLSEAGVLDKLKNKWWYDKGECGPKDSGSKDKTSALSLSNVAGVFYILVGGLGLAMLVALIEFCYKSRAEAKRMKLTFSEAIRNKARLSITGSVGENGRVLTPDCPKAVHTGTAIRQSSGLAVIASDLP
UniProt Q9Z2H5: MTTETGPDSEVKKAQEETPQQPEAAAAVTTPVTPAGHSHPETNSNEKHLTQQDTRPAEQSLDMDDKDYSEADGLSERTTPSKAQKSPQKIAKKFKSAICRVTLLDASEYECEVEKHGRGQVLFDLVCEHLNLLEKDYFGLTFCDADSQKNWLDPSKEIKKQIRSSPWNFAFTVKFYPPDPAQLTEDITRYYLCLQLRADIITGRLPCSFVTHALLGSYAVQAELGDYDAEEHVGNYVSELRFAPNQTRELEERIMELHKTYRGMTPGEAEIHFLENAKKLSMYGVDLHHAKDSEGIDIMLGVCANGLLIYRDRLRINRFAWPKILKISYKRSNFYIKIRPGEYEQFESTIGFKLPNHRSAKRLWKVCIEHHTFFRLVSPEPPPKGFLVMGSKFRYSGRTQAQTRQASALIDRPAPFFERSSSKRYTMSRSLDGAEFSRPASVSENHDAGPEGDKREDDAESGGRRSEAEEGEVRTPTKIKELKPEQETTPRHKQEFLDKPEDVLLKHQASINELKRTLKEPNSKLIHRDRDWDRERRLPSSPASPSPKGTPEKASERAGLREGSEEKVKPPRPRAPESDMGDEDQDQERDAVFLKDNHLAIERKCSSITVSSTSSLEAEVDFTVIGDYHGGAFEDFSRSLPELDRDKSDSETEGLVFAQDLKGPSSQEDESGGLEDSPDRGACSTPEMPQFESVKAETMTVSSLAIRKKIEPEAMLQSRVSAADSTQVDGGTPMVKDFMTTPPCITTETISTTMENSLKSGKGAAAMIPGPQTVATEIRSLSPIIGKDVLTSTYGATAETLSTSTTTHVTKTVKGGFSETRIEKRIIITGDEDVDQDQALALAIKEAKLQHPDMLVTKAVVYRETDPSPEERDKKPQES

How the values were obtained:
[1] = biological target: native GluA1 (mouse brain) (mouse (endogenous in brain)) (UniProt P23818); assay: co-IP; whole brain detergent extracts (TNE buffer, 1% Nonidet P-40, 1% Triton-X 100) of adult wild-type and GluA1-/- mice; precipitation with antisera or Fab7, preimmune sera as controls; immunoblot
[2] = biological target: myc-tagged SAP97 (UniProt Q62696); assay: co-IP; HEK293 cells co-transfected (1:1) with flag-tagged GluA4 constructs and myc-tagged SAP97; detergent extracts (TNE buffer, 1% Nonidet P-40, 1% Triton-X 100), overnight at 4°C, GammaBind G-Sepharose; immunoblot
[3] = biological target: T1, dynamin 1 (rat cerebellum) (rat (endogenous in cerebellum)) (UniProt P21575); assay: co-IP; rat cerebellar extract immunoprecipitated with a panel of antibodies (anti-ΔP, anti-BDL, Fab7, anti-dynamin); immunoblot for dynamin and GluR4
T1 sequence: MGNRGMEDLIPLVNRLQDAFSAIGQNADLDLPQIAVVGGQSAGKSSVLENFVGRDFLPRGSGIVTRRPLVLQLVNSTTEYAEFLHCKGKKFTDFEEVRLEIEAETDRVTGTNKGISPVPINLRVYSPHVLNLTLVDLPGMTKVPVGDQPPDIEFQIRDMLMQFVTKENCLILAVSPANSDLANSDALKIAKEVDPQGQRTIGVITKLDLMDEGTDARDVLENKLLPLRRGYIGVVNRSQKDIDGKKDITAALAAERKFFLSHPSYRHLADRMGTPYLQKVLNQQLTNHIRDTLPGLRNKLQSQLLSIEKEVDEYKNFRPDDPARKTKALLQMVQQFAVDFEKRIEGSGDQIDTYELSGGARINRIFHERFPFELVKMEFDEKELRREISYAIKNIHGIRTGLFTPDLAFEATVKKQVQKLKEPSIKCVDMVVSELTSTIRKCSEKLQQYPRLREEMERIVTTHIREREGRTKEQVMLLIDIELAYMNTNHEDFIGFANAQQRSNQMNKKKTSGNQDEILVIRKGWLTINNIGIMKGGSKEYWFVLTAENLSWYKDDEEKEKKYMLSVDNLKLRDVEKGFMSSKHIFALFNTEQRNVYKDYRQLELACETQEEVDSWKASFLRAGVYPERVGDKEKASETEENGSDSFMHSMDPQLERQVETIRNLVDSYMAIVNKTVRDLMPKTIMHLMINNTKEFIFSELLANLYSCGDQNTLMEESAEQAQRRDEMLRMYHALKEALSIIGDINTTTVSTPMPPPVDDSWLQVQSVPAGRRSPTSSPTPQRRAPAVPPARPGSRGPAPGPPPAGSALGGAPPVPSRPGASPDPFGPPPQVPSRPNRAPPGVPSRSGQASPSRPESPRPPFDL

[4] = biological target: native SAP97 (mouse brain) (mouse (endogenous in brain)) (UniProt Q811D0); assay: co-IP; whole brain detergent extracts (TNE buffer, 1% Nonidet P-40, 1% Triton-X 100) of adult wild-type and GluA1-/- mice; precipitation with antisera or Fab7, preimmune sera as controls; immunoblot
[5] = biological target: native GluA4 (rat cerebellum) (rat (endogenous in cerebellum)) (UniProt P19493); assay: co-IP; rat cerebellar extract immunoprecipitated with a panel of antibodies (anti-ΔP, anti-BDL, Fab7, anti-dynamin); immunoblot for dynamin and GluR4

binding [1]: binds
Molecule: native GluA4 (mouse brain) (from UniProt Q9Z2W8 21-902) (receptor)

binding [2]: no binding
Molecule: flag-tagged full-length wild-type GluA4 (from UniProt P19493 21-902) (receptor)

binding [3]: no binding
Molecule: native GluA4 (rat cerebellum) (from UniProt P19493 21-902) (receptor)

binding [4]: binds
Molecule: 4.1N (mouse brain) (from UniProt Q9Z2H5 1-879)

binding [5]: no binding
B1: dynamin 1 (rat cerebellum) (protein, UniProt P21575 1-864)
chain: T1 sequence
